Laboratory results taken from publication PMC7819943, “Rice protein-binding microarrays: a tool to detect cis-acting elements near promoter regions in rice”.
The other results are listed elsewhere or left out.

Each sequence was assayed against T1, OsSMF1 (Oryza sativa, UniProt Q6ZLB0 1-436) (assay: protein-binding microarray (RPBM); PBS, 2% BSA, 51.3 ng/ul salmon testes DNA, 50 uM zinc acetate, 200 nM TF, 25 C, 1 h; high values mean tight binding). Settings: protein: recombinant; tags: N-terminal polyhistidine and DsRed monomer fusion (pET32a); chain copies: 2; label: CyDye5-dUTP incorporated in the synthesized complementary strand; 3' TTTTT single-stranded linker to array surface; dsDNA, one strand shown.
T1 sequence: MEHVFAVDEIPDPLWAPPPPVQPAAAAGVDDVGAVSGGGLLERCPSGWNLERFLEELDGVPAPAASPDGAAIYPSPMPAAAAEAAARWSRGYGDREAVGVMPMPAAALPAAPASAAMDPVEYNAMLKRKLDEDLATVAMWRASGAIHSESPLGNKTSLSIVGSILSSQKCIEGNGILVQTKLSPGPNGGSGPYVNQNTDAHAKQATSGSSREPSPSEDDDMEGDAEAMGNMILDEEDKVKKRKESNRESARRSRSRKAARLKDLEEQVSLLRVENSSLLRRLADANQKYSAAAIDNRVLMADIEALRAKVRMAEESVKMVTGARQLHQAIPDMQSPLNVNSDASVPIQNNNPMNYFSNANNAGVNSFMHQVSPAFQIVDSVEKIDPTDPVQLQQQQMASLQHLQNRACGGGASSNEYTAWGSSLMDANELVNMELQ
Outline: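 Binding signal is defined as the fluorescence intensity of each feature in arbitrary units, read on an Axon 4000B scanner. Transcription factors with N-terminal polyhistidine and DsRed fusions came from E. coli BL21-CodonPlus and were purified on Ni–NTA. They were incubated at 200 nM for 1 h at 25 °C on a custom Agilent array that had been made double-stranded with Cy5-dUTP, with 50 µM zinc acetate present, and the array was washed.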

Sequence | binding signal
CGCCGCCTCCGCCTCCGCCTCCGCTGCTCGCCGACCGGAGCGGAGTCACCTAGTGCAG | 4680 fluorescence intensity (a.u.)
TGTCGTCCCGTACTACGTCATCTCCAGTCATCTTCTCCCACGGAGTCACCTAGTGCAG | 12600 fluorescence intensity (a.u.)
CTGGCTGACAAGTGGATCCAGTTCCACATGTCAGTGGCAGCGGAGTCACCTAGTGCAG | 3590 fluorescence intensity (a.u.)
CCGCGTACGCGTACGTATAACCTCGCGTCTTTACAGTCTACGGAGTCACCTAGTGCAG | 3650 fluorescence intensity (a.u.)
TGTTTAGATAAGGGGTATAAAGTTTTAGCGTGTCACATTGCGGAGTCACCTAGTGCAG | 3450 fluorescence intensity (a.u.)
CAACACCCGTCCGCCAGAGAAGACCATCGTGACGCCACTCCGGAGTCACCTAGTGCAG | 4880 fluorescence intensity (a.u.)
CAGAGGAAATGTGGGGCCCACGGGTCAGTGGGACGTGGCCCGGAGTCACCTAGTGCAG | 4680 fluorescence intensity (a.u.)
GGCGACGCACCACGTCGGCCGGCCGCCACCGCCGGAGAGGCGGAGTCACCTAGTGCAG | 3330 fluorescence intensity (a.u.)
CATGGTATCTGTGACTCTTTTCGTTGGTCGGTTTGACATGCGGAGTCACCTAGTGCAG | 3740 fluorescence intensity (a.u.)
ACCGCACCGCGCGGCACGCCCACGCACGCACGCTCCGCCCCGGAGTCACCTAGTGCAG | 4800 fluorescence intensity (a.u.)
ACCGCTGGTCTTGGGGTGGCCTGACACGACACGACACGAGCGGAGTCACCTAGTGCAG | 5250 fluorescence intensity (a.u.)
AAACGCGTCCAGCTCATCGTCGCCGGCGCCTCGTTTCACCCGGAGTCACCTAGTGCAG | 8340 fluorescence intensity (a.u.)
TCTCGTAGTTTACAGGTGGAATCTATAATTTGTTTTGTTACGGAGTCACCTAGTGCAG | 3350 fluorescence intensity (a.u.)
AGAGGAGGAAGAAGAGGAGGGGTGACAATGATATGTGGGGCGGAGTCACCTAGTGCAG | 5560 fluorescence intensity (a.u.)
TTCTAATTAATATGTCATTAGCAAATGTTTACTGTACCACCGGAGTCACCTAGTGCAG | 4380 fluorescence intensity (a.u.)
CTCCTGCGTGGCGTACGCCGCGTCCGACGTCAGGGGAGGCCGGAGTCACCTAGTGCAG | 7020 fluorescence intensity (a.u.)
TCCAGCACCGGCGCCTGCATCAGCACCATCACTGGAGCCGCGGAGTCACCTAGTGCAG | 4230 fluorescence intensity (a.u.)
CGCCGGCATCTCCTCCTCCCCACGCCGCAACGTGTCCGCCCGGAGTCACCTAGTGCAG | 5630 fluorescence intensity (a.u.)
TAGGCCCACACCTAGTCAGCTCAATCGAAATACAACCCACCGGAGTCACCTAGTGCAG | 3450 fluorescence intensity (a.u.)
GCACCGGTTTTGATAGTTGAGGGACTTGTTGTATCTGGTTCGGAGTCACCTAGTGCAG | 29200 fluorescence intensity (a.u.)
AGGTGTAAGACTGCCACGTGTCCTCTCGCCTCCACATTACCGGAGTCACCTAGTGCAG | 25800 fluorescence intensity (a.u.)

Nothing new here: entries from further up.
Sequence | binding signal
GCACCGGTTTTGATAGTTGAGGGACTTGTTGTATCTGGTTCGGAGTCACCTAGTGCAG | 29200 fluorescence intensity (a.u.)
AGGTGTAAGACTGCCACGTGTCCTCTCGCCTCCACATTACCGGAGTCACCTAGTGCAG | 25800 fluorescence intensity (a.u.)

Further entries.

Sequence | binding signal
TCAAAAGAACAATGCCCAAAGTCTTCGTTGCCTTCAATTGCGGAGTCACCTAGTGCAG | 3510 fluorescence intensity (a.u.)
AGTGCCCCACTCTGGATTTCGATAATTACGTATATGGGTCCGGAGTCACCTAGTGCAG | 3280 fluorescence intensity (a.u.)
CCCGAGTCTTTAATCACTTTTGCTTACGTGTATGGTTAGGCGGAGTCACCTAGTGCAG | 22900 fluorescence intensity (a.u.)
CATGAGGAGGATGCTGACGTCTCGAGGTGAAGGCCGCAATCGGAGTCACCTAGTGCAG | 4970 fluorescence intensity (a.u.)
CATTCGACGCGTGGCGTCCCACTTGGCGGCGTAGGAGACGCGGAGTCACCTAGTGCAG | 5600 fluorescence intensity (a.u.)
GATTCCGTGCATCATTCCGTGCTGACCACATAATGTAGATCGGAGTCACCTAGTGCAG | 3830 fluorescence intensity (a.u.)
TCTTGCATCATACCTCCTCTTCCGGTATGACTTGCTGAGTCGGAGTCACCTAGTGCAG | 3160 fluorescence intensity (a.u.)
AGAGCTTCGCATGACGCCTGCCGTTTCGGCCCATTTGAGCCGGAGTCACCTAGTGCAG | 3730 fluorescence intensity (a.u.)
GAGGTGGGCGTGATGATCTCTACAGGCAGCGGCTCGTCGTCGGAGTCACCTAGTGCAG | 23900 fluorescence intensity (a.u.)
CTTATGCCTACAAAGATAGCACATGCTTTGTCTGGCATAGCGGAGTCACCTAGTGCAG | 3690 fluorescence intensity (a.u.)
CCACGTGGATCCCACGCTGAGTCAGCTACCATGTCAGAAACGGAGTCACCTAGTGCAG | 14400 fluorescence intensity (a.u.)
CGTAGAAGAGAGGTCCCATGGTGCAGCTGACCCACCCGAACGGAGTCACCTAGTGCAG | 3170 fluorescence intensity (a.u.)
TTTCTAGATTTGGGGTTTGTTTCTTTGGCAGAATCATGTACGGAGTCACCTAGTGCAG | 3290 fluorescence intensity (a.u.)
TTATTACCACATCGTTTTGCGTGAAACACTTAATCTTTATCGGAGTCACCTAGTGCAG | 3470 fluorescence intensity (a.u.)
ACTTAATTTGGCTCTTTAGGCCTTTACCAACGTGTCACTCCGGAGTCACCTAGTGCAG | 6080 fluorescence intensity (a.u.)
TCTAAGTGGTAGATGCCGTCGTCATTGTTGTAGTAGATGGCGGAGTCACCTAGTGCAG | 7190 fluorescence intensity (a.u.)
CCTTGGCCTTAATTATTGACGTAGTACGTACACTTGATGCCGGAGTCACCTAGTGCAG | 4250 fluorescence intensity (a.u.)
ATCCTAGGTGGAACAGACACGTCATCTTGCAGGTGGACCCCGGAGTCACCTAGTGCAG | 20500 fluorescence intensity (a.u.)
GGCGACCGTGTGAGCCTCTGAATAATCCCACATTGCTTAGCGGAGTCACCTAGTGCAG | 3380 fluorescence intensity (a.u.)
CGGGGCGAGGCGACAGGTACGCGTGGCACGGCTGCTTTCCCGGAGTCACCTAGTGCAG | 5920 fluorescence intensity (a.u.)
CCCTCCACATGACATCACCCCTCGCGCGGCTGCTGCTCTCCGGAGTCACCTAGTGCAG | 6690 fluorescence intensity (a.u.)
